# In PubChem BioAssay AID330 (DTP/NCI, 2004):
# The list shows only some results of the screen, not a fair sample: it gathers tests that were run many times, whatever their T/C, doses with no T/C, and many T/C values between a quarter and a half above the control. Other doses and runs of a compound stand elsewhere. T/C gives the treated animals as a percentage of the vehicle group. Some doses have a count of surviving animals in place of a T/C: the source files T/C as zero there, which appears to mark a toxic dose or a test without result, not a measured value. Some survivor counts are full or nearly so, which does not show that the dose was tolerated: the source hardly ever lists a survival T/C far under the control, and the zero likely stands for such cases as well. Counts of survivors are from the toxicity check (mostly the fifth day) where no day follows; animals may have died later. Schedule codes are those of the source, taken here to give the interval after Q, in days (D) or hours (H), and the number of doses after X. Some doses were run more than once; their values stand side by side, smallest first. Where survival is the endpoint, this PubChem deposit counts one and a half times the control or more as active, and values a quarter to a half above the control carry no call in these data; other NCI protocols may use other cut-offs. Some T/C values carry the count of animals alive at the toxicity check (mostly the fifth day); where none is given, no animal had died by that day.
# Test system: P388 leukemia ip, CD2F1 mice, survival T/C
# Assay: NCI In Vivo Anticancer Drug Screen. Data for tumor model P388 Leukemia (intraperitoneal) in CD2F1 (CDF1) mice
# Conditions: T/C endpoint: median survival time, higher T/C = longer survival
# [1] = dose: 50.0 mg/kg/injection, schedule: Q01DX009 (ip), vehicle: saline with Tween-80
# [2] = dose: 200.0 mg/kg/injection, schedule: Q01DX009 (ip), vehicle: saline with Tween-80
# [3] = dose: 50.0 mg/kg/injection, schedule: Q01DX009 (ip), vehicle: saline
# [4] = dose: 240.0 mg/kg/injection, schedule: Q01DX005 (ip), vehicle: saline with Tween-80
# [5] = dose: 200.0 mg/kg/injection, schedule: Q01DX005 (ip), vehicle: Klucel (hydroxypropylcellulose) (HPC)
# [6] = dose: 200.0 mg/kg/injection, schedule: Q01DX009 (ip), vehicle: Klucel (hydroxypropylcellulose) (HPC)
# [7] = dose: 200.0 mg/kg/injection, schedule: Q01DX009 (ip), vehicle: saline
# [8] = dose: 20.0 mg/kg/injection, schedule: Q01DX009 (ip), vehicle: Klucel (hydroxypropylcellulose) (HPC)
# [9] = dose: 400.0 mg/kg/injection, schedule: Q04DX002 (ip), vehicle: Klucel (hydroxypropylcellulose) (HPC)
# [10] = dose: 200.0 mg/kg/injection, schedule: Q01DX005 (ip), vehicle: saline
structure (smiles),measurement,setting,value
N#CO,T/C,[1],136 % of control
same,survivor count,[2],6 of 6
CC1(c2cccc[n+]2Cc2ccc(Cl)c3ccccc23)OCCO1,survivor count,[3],0 of 6
N#C/C(=C\Nc1ccccn1)C(=O)c1ccco1,survivor count,[4],5 of 6
COc1cc2c(cc1OC)[N+]([O-])=C(c1ccccc1)C2=O,survivor count,[5],3 of 6
COc1cccc(C(=O)CC(c2ccccc2)C(C)(C)[N+](=O)[O-])c1 (stereo unspecified),survivor count,"dose: 200.0 mg/kg/injection, schedule: Q01DX005 (ip), vehicle: saline with Tween-80",2 of 5
CCCCCCCCCCCC[N+](C)([O-])Cc1ccccc1 (stereo unspecified),survivor count,"dose: 100.0 mg/kg/injection, schedule: Q01DX009 (ip), vehicle: Klucel (hydroxypropylcellulose) (HPC)",5 of 6
same,survivor count,[6],0 of 6
CCCCCCCC[As](CCCCCCCC)SC1OC(COC(C)=O)C(OC(C)=O)C(OC(C)=O)C1OC(C)=O (stereo unspecified),survivor count,[6],3 of 6
c1ccc([P+](NCCN[P+](c2ccccc2)(c2ccccc2)c2ccccc2)(c2ccccc2)c2ccccc2)cc1,survivor count,"dose: 25.0 mg/kg/injection, schedule: Q01DX009 (ip), vehicle: saline",5 of 6
same,survivor count,[3],1 of 6
same,survivor count,"dose: 100.0 mg/kg/injection, schedule: Q01DX009 (ip), vehicle: saline",0 of 6
same,survivor count,[7],0 of 6
CC(=O)C(=N/O)/C(C)=N/NC(=O)CC#N,survivor count,"dose: 400.0 mg/kg/injection, schedule: Q04DX009 (ip), vehicle: saline",6 of 6
CC1CC2(OC2C)C(=O)OC2CCN(C)C/C=C(/COC(=O)C1(C)O)C2=O (stereo unspecified),T/C,[8],128 % of control
Cc1cccc(=O)[n-]1.Cc1cccc(=O)[n-]1.Cc1cccc(=O)[n-]1.Cc1cccc(=O)[n-]1.[Cu+].[Cu+].[Cu+].[Cu+],survivor count,"dose: 200.0 mg/kg/injection, schedule: Q04DX002 (ip), vehicle: Klucel (hydroxypropylcellulose) (HPC)",0 of 6
same,survivor count,[9],0 of 6
Cc1nnc2nc(N)[nH]n2c1=O,survivor count,"dose: 200.0 mg/kg/injection, schedule: Q01DX005 (ip), vehicle: water",0 of 6
CN(CN1C(=O)CCC1=O)CN1C(=O)CCC1=O,T/C,"dose: 120.0 mg/kg/injection, schedule: Q01DX005 (ip), vehicle: saline",126 % of control
same,T/C,"dose: 240.0 mg/kg/injection, schedule: Q01DX005 (ip), vehicle: saline",138 % of control [5 of 6 alive]
COc1cc2c(c(OC)c1OC)-c1ccc(OC)c(=O)cc1CC=C2,T/C,"dose: 5.0 mg/kg/injection, schedule: Q01DX009 (ip), vehicle: Klucel (hydroxypropylcellulose) (HPC)",136 % of control
same,survivor count,"dose: 10.0 mg/kg/injection, schedule: Q01DX009 (ip), vehicle: Klucel (hydroxypropylcellulose) (HPC)",6 of 6
same,survivor count,[8],4 of 6 and 6 of 6
same,survivor count,"dose: 40.0 mg/kg/injection, schedule: Q01DX009 (ip), vehicle: Klucel (hydroxypropylcellulose) (HPC)",5 of 6
N[C@@H](C(=O)O)[C@@H]1C=CCCC1,survivor count,"dose: 400.0 mg/kg/injection, schedule: Q04DX002 (ip), vehicle: saline",0 of 6
CSC(C=P(c1ccccc1)(c1ccccc1)c1ccccc1)=Nc1ccccc1,survivor count,[1],1 of 6
same,survivor count,"dose: 100.0 mg/kg/injection, schedule: Q01DX009 (ip), vehicle: saline with Tween-80",0 of 6
CC(=O)OCC1OC(OC2C(COC(C)=O)OC(Sc3ccccc3)C(OC(C)=O)C2OC(C)=O)C(OC(C)=O)C(OC(C)=O)C1OC(C)=O (stereo unspecified),survivor count,[9],6 of 6
O=C1CC(c2ccc(Cl)cc2Cl)Oc2ccc(Cl)cc21 (stereo unspecified),survivor count,"dose: 25.0 mg/kg/injection, schedule: Q01DX009 (ip), vehicle: saline with Tween-80",6 of 6
O=C(NC(Cc1ccccc1)C(=O)CCl)OCc1ccccc1 (stereo unspecified),survivor count,"dose: 100.0 mg/kg/injection, schedule: Q01DX009 (ip), vehicle: other",2 of 6
same,survivor count,"dose: 200.0 mg/kg/injection, schedule: Q01DX009 (ip), vehicle: other",1 of 6
same,survivor count,"dose: 400.0 mg/kg/injection, schedule: Q01DX009 (ip), vehicle: other",0 of 6
OC1CC2CCCCC2CC1c1ccccc1 (stereo unspecified),T/C,"dose: 100.0 mg/kg/injection, schedule: Q04DX002 (ip), vehicle: saline with Tween-80",138 % of control
same,T/C,"dose: 200.0 mg/kg/injection, schedule: Q04DX002 (ip), vehicle: saline with Tween-80",136 % of control
C1CCC2OCCOCCOCCOCCOC2C1 (stereo unspecified),survivor count,[10],0 of 5
CS/N=C(\c1ccccc1)N1CCOCC1,survivor count,"dose: 240.0 mg/kg/injection, schedule: Q01DX005 (ip), vehicle: Klucel (hydroxypropylcellulose) (HPC)",0 of 6
Cn1nc(-c2cccc(F)c2)[n+](C)n1,survivor count,[10],4 of 5
CC(Cc1ccccc1)NC(=O)C1CC2CCCCN2C1C (stereo unspecified),survivor count,[4],0 of 6
CCOC(=O)c1ccccc1-n1nnc(C#N)c1N,survivor count,[5],0 of 6
COc1cc([N+](=O)[O-])c(OC)cc1Nc1ccccc1C(=O)O,survivor count,"dose: 240.0 mg/kg/injection, schedule: Q01DX005 (ip), vehicle: Klucel + Tween-80",3 of 6
NC(=O)Nc1ccc(Cl)cc1[N+](=O)[O-],survivor count,"dose: 150.0 mg/kg/injection, schedule: Q01DX009 (ip), vehicle: Klucel (hydroxypropylcellulose) (HPC)",0 of 6
same,survivor count,"dose: 300.0 mg/kg/injection, schedule: Q01DX009 (ip), vehicle: Klucel (hydroxypropylcellulose) (HPC)",0 of 6
C=C1CC2C3CC=C4CC(OC(C)=O)CCC4(C)C3CCC2(C)C1=O (stereo unspecified),survivor count,[1],3 of 6
same,survivor count,[7],3 of 6
CC1NNC(=O)C1(Br)Br (stereo unspecified),survivor count,"dose: 25.0 mg/kg/injection, schedule: Q01DX009 (ip), vehicle: gum acacia",0 of 6
CCCc1cc(-c2cccc3ccccc23)c(CCC)c2c1-c1cccc3cccc-2c13,survivor count,[2],6 of 6
